Experimental data as given in paper PMC7039449, “FMN-dependent oligomerization of putative lactate oxidase from Pediococcus acidilactici” (PLoS ONE, 2020).
These are yes or no findings as the source states them, for the method shown.

Tests used:
[1] = biological target: Pediococcus acidilactici lactate oxidase (Pediococcus acidilactici) (UniProt E0NE46); experiment: SEC; analytical SEC of the colourless, FMN-free fraction; Superdex 200 Increase 10/300 calibrated with Bio-Rad standards; 30 mM Hepes pH 7.5, 350 mM NaCl, 0.5 mM TCEP; both purified
[2] = biological target: Pediococcus acidilactici lactate oxidase (Pediococcus acidilactici) (UniProt E0NE46); experiment: SAXS; SAXS in size-exclusion chromatography mode, monomeric (FMN-free) fraction; SAXS MoW 2.0; both purified
[3] = biological target: Pediococcus acidilactici lactate oxidase (Pediococcus acidilactici) (UniProt E0NE46); experiment: condition: only after chemical removal of FMN (deflavination); SEC; native tetramer deflavinated (250 mM sodium phosphate pH 7.5, 3 M KBr, 10% glycerol, 0.5 mM TCEP, 1 mM EDTA, on ice 4 days, repeated), then SEC in size exclusion buffer; both purified

binding [3]: no binding
B1: Pediococcus acidilactici lactate oxidase (enzyme)
chain: MTMINGYEQSDREEKIDILNLESLEKQAEEIIPAGGFGYIAGGSEDEWTLKQNRMAFHHRQIAPKALSGIEKPELNTEIFGIPLNTPVMMAPAAAQGLAHSQGEKDTARGLAAVGGLMAQSTYSSVSIAETAAAGGDAPQFFQLYMSKDWNFNESLLDEAKKANVKAIILTVDATVDGYREADIKNKFTFPLPMANLIKFSEGNGQGKGIEEIYASAAQNIRPEDVKRIADYTNLPVIVKGIQTPEDAIRAIDAGAAGIYVSNHGGRQLNGGPASFDVLEDIATAVNKQVPIIFDSGVRRGSDVFKALASGADLVALGRPVIYGLALGGAKGVQSVFEHLNHELEIVMQLAGTKTIEDVKNNSLLNIKY
notes: putative L-lactate oxidase of Pediococcus acidilactici DSM 20284, Uniprot E0NE46; gene cloned from genomic DNA into pNH-TrxT; theoretical monomer mass 39 kDa; The same polypeptide without FMN (colourless fraction, or deflavinated) is a monomer that lacks secondary structure by CD; also called PaLCTO; WT PaLCTO; source: E. coli BL21 (DE3), purified (Ni-NTA, TEV cleavage, second Ni-NTA, SEC); not …
binding [1]: no binding (condition: without FMN (colourless fraction))
binding [2]: no binding (condition: without FMN (monomeric fraction))
